Assay results from publication PMC7312009.
Substitutions are numbered along the chain they refer to. No constants are given. Whether binding was seen depends on the method and setting. Binding seen in cells or lysates may run through a third protein. Some binding calls cover weakened binding; strength is not graded here. For some of these results: Tags and fused reporters may be left off the sequences shown. One block for each substance: values may come before it.

Chains of the proteins cited; added tags and fusions are not shown.
UniProt Q9NRC8: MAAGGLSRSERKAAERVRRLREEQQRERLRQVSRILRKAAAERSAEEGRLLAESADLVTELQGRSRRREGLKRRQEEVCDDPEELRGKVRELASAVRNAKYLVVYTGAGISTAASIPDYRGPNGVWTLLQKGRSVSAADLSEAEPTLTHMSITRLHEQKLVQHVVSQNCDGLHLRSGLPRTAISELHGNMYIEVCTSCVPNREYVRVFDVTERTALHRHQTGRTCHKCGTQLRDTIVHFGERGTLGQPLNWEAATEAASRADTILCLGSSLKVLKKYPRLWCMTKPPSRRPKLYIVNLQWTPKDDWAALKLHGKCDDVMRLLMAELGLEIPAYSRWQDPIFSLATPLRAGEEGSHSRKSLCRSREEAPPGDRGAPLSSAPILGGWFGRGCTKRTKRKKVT

Key:
[1] = molecular target: T1, Flag-STRAP (WT), serine-threonine kinase receptor-associated protein (UniProt Q9Y3F4); assay: co-IP; HEK293T co-transfected with tagged STRAP and tagged SIRT7 (Figure 3D: Flag-STRAP, HA-SIRT7, with or without HA-CBP); whole-cell lysates in BC100 buffer; anti-Flag M2 beads; Western blotting
T1 sequence: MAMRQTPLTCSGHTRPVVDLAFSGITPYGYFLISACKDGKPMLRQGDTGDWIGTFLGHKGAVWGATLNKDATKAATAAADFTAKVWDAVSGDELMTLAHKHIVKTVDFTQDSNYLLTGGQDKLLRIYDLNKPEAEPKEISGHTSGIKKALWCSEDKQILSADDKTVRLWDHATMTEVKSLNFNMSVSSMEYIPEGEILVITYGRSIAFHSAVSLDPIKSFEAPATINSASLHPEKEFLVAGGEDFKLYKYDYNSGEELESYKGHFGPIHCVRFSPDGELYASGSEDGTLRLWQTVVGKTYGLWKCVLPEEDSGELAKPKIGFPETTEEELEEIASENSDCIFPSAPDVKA

[2] = molecular target: T2, endogenous STRAP (HEK293T) (human (endogenous in HEK293T)) (UniProt Q9Y3F4); assay: co-IP; endogenous proteins; whole HEK293T cell lysates immune-precipitated with control IgG, anti-SIRT7 or anti-STRAP antibodies; Western blotting
T2 sequence: T1 sequence

[3] = molecular target: T3, Flag-STRAP-3KR expressed in HCT116 cells (UniProt Q9Y3F4); assay: co-IP; HCT116 transfected with Flag-STRAP WT, 3KR or 3KQ for 24 h; whole-cell lysates immune-precipitated with M2 beads; Western blotting for p53
T3 sequence: T1 sequence with K147R, K148R, K156R

[4] = molecular target: T4, Flag-STRAP-WT expressed in HCT116 cells (UniProt Q9Y3F4); assay: as above
T4 sequence: T1 sequence

binding [1]: binds
Substance: HA-SIRT7, sirtuin7 (from UniProt Q9NRC8 1-400) (enzyme)

binding [2]: binds
Substance: endogenous SIRT7 (HEK293T) (from UniProt Q9NRC8 1-400) (enzyme)

binding [3]: binds
binding [4]: binds
Substance: p53 (endogenous, HCT116) (from UniProt P04637 1-393)
